Data as given in PubChem BioAssay AID1259424 (University of Nebraska Medical Center, 2018).
Purpose: 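Rank knockdowns across the genome by resemblance to the KSR1 depletion profile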 (primary screen). Cells: human HCT116 colon cancer cells. Reagent: siRNA pool against human genes, 50 nM. Measurement: 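Six signature mRNAs by branched-DNA multiplex assay, scaled to two housekeeping genes and non-targeting median, log2; matched to mean KSR1 knockdown profile by Pearson correlation and euclidean distance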. Scale: mean correlation with KSR1 profile and KSR1 correlation: higher = expression change more like KSR1 knockdown; mean distance from KSR1 profile: higher = expression change less like KSR1 knockdown.
This is an unselected part of about 14,000 reagents. 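Higher correlation or smaller distance means closer resemblance to KSR1 loss; control wells, including KSR1 knockdowns, recur on many plates.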 The numbers tell different reagents against one gene apart. Not given: the time to read-out.

Gene | reagent no. | mean correlation with KSR1 profile | mean distance from KSR1 profile | KSR1 correlation, replicate 1 | KSR1 correlation, replicate 2 | KSR1 correlation, replicate 3
KL | 1 | -0.0942 | 2.06 | -0.0496 | 0.025 | 0.189
HEYL | 1 | 0.413 | 1.66 | 0.264 | -0.241 | 0.59
ALPG | 1 | -0.0999 | 4.02 | -0.018 | -0.145 | -0.199
FIRRM | 1 | -0.65 | 3.56 | -0.512 | -0.557 | -0.688
HIC1 | 1 | 0.463 | 3.25 | 0.599 | 0.534 | 0.37
RORC | 1 | 0.627 | 0.792 | 0.599 | 0.769 | 0.143
TMEM108 | 1 | -0.186 | 2.6 | -0.0875 | -0.408 | -0.038
MSH5 | 1 | 0.36 | 2.41 | 0.0483 | 0.232 | 0.3
SSH3 | 1 | -0.569 | 2.5 | -0.359 | -0.909 | -0.471
ARMC6 | 1 | 0.347 | 1.73 | 0.439 | 0.145 | 0.252
FAM30A | 1 | 0.00599 | 3.41 | 0.101 | -0.017 | 0.0279
ECT2 | 1 | -0.144 | 3.47 | -0.0222 | -0.238 | -0.269
SMYD3 | 1 | -0.564 | 1.66 | -0.87 | -0.533 | -0.214
METTL14 | 1 | 0.514 | 0.836 | 0.863 | 0.34 | 0.514
HMCES | 1 | 0.262 | 2.71 | 0.165 | 0.354 | 0.378
PAX6 | 1 | -0.0607 | 3.37 | -0.0522 | -0.0866 | -0.147
PHF2 | 1 | 0.692 | 0.996 | 0.545 | 0.923 | 0.637
PTPN23 | 1 | -0.27 | 3.97 | -0.118 | -0.603 | -0.21
LRCH4 | 1 | 0.216 | 3.48 | 0.177 | 0.147 | 0.174
DHX29 | 1 | 0.0419 | 2.79 | 0.000211 | -0.0241 | -0.0495
MMP3 | 1 | 0.14 | 3.77 | 0.182 | 0.168 | -0.0497
G0S2 | 1 | 0.55 | 1.28 | 0.75 | 0.334 | 0.319
CLMN | 1 | 0.0165 | 1.69 | -0.234 | 0.724 | -0.151

10 entries from above, showing only “KSR1 correlation, replicate 1”.
SSH3 = -0.359
ARMC6 = 0.439
FAM30A = 0.101
ECT2 = -0.0222
SMYD3 = -0.87
METTL14 = 0.863
HMCES = 0.165
PAX6 = -0.0522
PHF2 = 0.545
PTPN23 = -0.118

The results go on:
Gene | reagent no. | mean correlation with KSR1 profile | mean distance from KSR1 profile | KSR1 correlation, replicate 1 | KSR1 correlation, replicate 2 | KSR1 correlation, replicate 3
CPLANE2 | 1 | 0.166 | 2.13 | 0.187 | 0.252 | 0.203
ENPP3 | 1 | -0.683 | 2.54 | -0.62 | -0.794 | -0.647
PRKCD | 1 | 0.254 | 3.24 | 0.335 | 0.472 | 0.115
ZNF267 | 1 | -0.0783 | 2.02 | 0.0106 | 0.247 | -0.229
MPHOSPH8 | 1 | 0.368 | 1.73 | 0.472 | 0.00302 | 0.671
LINC01565 | 1 | -0.38 | 1.93 | -0.569 | -0.365 | -0.229
NOAZFP | 1 | 0.0948 | 2.39 | 0.0584 | -0.22 | -0.234
CCNL2 | 1 | -0.0803 | 2.28 | -0.435 | -0.102 | -0.117
DSCAM | 1 | 0.017 | 2.52 | 0.108 | 0.0992 | -0.157
TTF1 | 1 | 0.0551 | 2.87 | 0.076 | -0.0115 | 0.493
CRYGA | 1 | -0.304 | 2.78 | -0.367 | -0.332 | -0.48
PHF20 | 1 | -0.371 | 1.58 | -0.569 | -0.299 | -0.111
BCL2L10 | 1 | 0.0125 | 1.39 | -0.126 | -0.26 | 0.283
PLAAT3 | 1 | -0.191 | 2.34 | -0.132 | -0.386 | 0.00854
HOXC9 | 1 | 0.416 | 3.22 | 0.231 | 0.102 | 0.655
GNA15 | 1 | 0.622 | 1.52 | 0.568 | 0.667 | 0.579
STAU2 | 1 | 0.0592 | 2.66 | 0.0277 | -0.138 | -0.145
JAG2 | 1 | -0.202 | 2.87 | -0.17 | -0.383 | 0.000418
SLC12A2 | 1 | -0.0509 | 2.12 | -0.0574 | -0.168 | -0.104
TNFRSF17 | 1 | -0.02 | 1.88 | -0.0197 | -0.194 | 0.161
KCNIP1 | 1 | -0.14 | 1.12 | -0.229 | -0.648 | -0.196
H3C6 | 1 | -0.725 | 1.79 | -0.554 | -0.724 | 0.431
GPX5 | 1 | -0.256 | 2.86 | -0.385 | -0.253 | -0.316
GJC1 | 1 | 0.242 | 1.64 | 0.284 | 0.259 | 0.107
GSTCD | 1 | 0.663 | 1.39 | 0.735 | 0.646 | 0.624
ATL2 | 1 | -0.263 | 2.47 | -0.102 | -0.411 | -0.323
SLC6A3 | 1 | -0.753 | 2.49 | -0.768 | -0.811 | -0.517
TXNDC17 | 1 | 0.418 | 1.89 | 0.379 | 0.264 | 0.305
MT1F | 1 | -0.326 | 4.78 | -0.24 | -0.23 | -0.348
PRELID3A | 1 | 0.35 | 1.67 | 0.223 | 0.405 | 0.288
RBMXL2 | 1 | 0.889 | 0.351 | 0.445 | 0.777 | 0.588
IDUA | 1 | 0.019 | 2.75 | 0.0828 | -0.119 | -0.0169
AKAP4 | 1 | 0.525 | 1.67 | 0.632 | 0.489 | 0.1
DHCR24 | 1 | 0.629 | 2.65 | 0.283 | 0.336 | 0.807
TPSAB1 | 1 | -0.235 | 2.23 | -0.388 | 0.0396 | -0.0875
TPSAB1 | 2 | -0.35 | 2.63 | -0.234 | -0.203 | -0.551
TK1 | 1 | 0.272 | 2.41 | 0.398 | 0.417 | -0.105
KLHL21 | 1 | -0.383 | 2.27 | 0.0396 | -0.441 | -0.704
BBLN | 1 | -0.615 | 2.34 | -0.627 | -0.71 | -0.699
FGF1 | 1 | -0.198 | 1.09 | -0.294 | -0.163 | 0.0727
